Data as given in PMC8393719.
These are yes or no findings as the source states them, for the method shown. For part of these data: A result given as binding can be weak or reduced; the word gives no strength. Sequences can lack the tags named with a protein. For part of these data: Binding seen in cells or lysates may run through a third protein.

B1: YFP^C-OsARP6 (Oryza sativa actin related protein 6 fused to the C-terminal part of YFP) (protein, UniProt Q5NBI2 1-429)
chain: MTGGSGVVVLDNGGGLLKAGFGGDMNPTAVVPNCMAKPPGSKKWLVADQLQAQDVDVTGMTLRRPIDRGYLINQEVQREVWERVIRNLLQVDPNNSSLLLVEPQFNPPALQHATDELVFEELGFKSLCVADAPSLVHLYEASRQPSLFRAQCSLVVDCGFSFTHASPVLQNFTLNYAVRRMDLGGKALTNYLKELISYRSLNVMDETLLIDDAKEKLCFVSLDVPGDLRLARLSSNDNPFRCSYILPDGITYKKGFVKDLDEACRYSSLPANGESVRKDSSDSDRSKFEDKKKPELSQNEFVLTNERFLVPEMLFHPIDLGMNQAGLAECIVRAIQACHPHLQPVLFERIILTGGSTLFPRFTERLEKELRPLVPDDYQVKIIAQEDPILGAWRGGSLLAHRPDFESMCITKSEYEEMGSMRCRRRFFH
B2: OsARP6 fused to activation domain (AD) (protein, UniProt Q5NBI2 1-429)
chain: MTGGSGVVVLDNGGGLLKAGFGGDMNPTAVVPNCMAKPPGSKKWLVADQLQAQDVDVTGMTLRRPIDRGYLINQEVQREVWERVIRNLLQVDPNNSSLLLVEPQFNPPALQHATDELVFEELGFKSLCVADAPSLVHLYEASRQPSLFRAQCSLVVDCGFSFTHASPVLQNFTLNYAVRRMDLGGKALTNYLKELISYRSLNVMDETLLIDDAKEKLCFVSLDVPGDLRLARLSSNDNPFRCSYILPDGITYKKGFVKDLDEACRYSSLPANGESVRKDSSDSDRSKFEDKKKPELSQNEFVLTNERFLVPEMLFHPIDLGMNQAGLAECIVRAIQACHPHLQPVLFERIILTGGSTLFPRFTERLEKELRPLVPDDYQVKIIAQEDPILGAWRGGSLLAHRPDFESMCITKSEYEEMGSMRCRRRFFH

Key:
[1] = molecular target: YFP^N-OsTrx1 (OsTrx1 fused to the N-terminal part of YFP) (rice (Oryza sativa)); assay: split reporter; BiFC with split YFP; rice protoplasts co-transformed with pUC-SPYNE and pUC-SPYCE constructs, confocal microscopy; twenty-five cells examined for each transformation
[2] = molecular target: YFP^N-OsPIE1 (OsPIE1 fused to the N-terminal part of YFP) (rice (Oryza sativa)); assay: as above
[3] = molecular target: OsPIE1 with the binding domain (BD) (rice (Oryza sativa)); assay: two-hybrid; S. cerevisiae AH109 co-transformed with bait (pGBKT7) and prey (pGADT7); growth on SD medium lacking Trp, Leu, His and Ade

Binder	binding [1]	binding [2]	binding [3]
B1	no binding	binds	
B2			binds
